# These are yes or no findings as the source states them, for the method shown. In cells and extracts the contact can be indirect. Some entries that bind do so weakly or less than the wild type.
# By UniProt entry, the sequences of proteins in these tests, tags left out. Where a name states a change or a piece, a line headed by the entry shows the natural chain unless it says otherwise. Chains listed by the source or under a name are the forms on record and can include a tag or linker. Residues count along the entry.
# afadin (P55196-1, form named): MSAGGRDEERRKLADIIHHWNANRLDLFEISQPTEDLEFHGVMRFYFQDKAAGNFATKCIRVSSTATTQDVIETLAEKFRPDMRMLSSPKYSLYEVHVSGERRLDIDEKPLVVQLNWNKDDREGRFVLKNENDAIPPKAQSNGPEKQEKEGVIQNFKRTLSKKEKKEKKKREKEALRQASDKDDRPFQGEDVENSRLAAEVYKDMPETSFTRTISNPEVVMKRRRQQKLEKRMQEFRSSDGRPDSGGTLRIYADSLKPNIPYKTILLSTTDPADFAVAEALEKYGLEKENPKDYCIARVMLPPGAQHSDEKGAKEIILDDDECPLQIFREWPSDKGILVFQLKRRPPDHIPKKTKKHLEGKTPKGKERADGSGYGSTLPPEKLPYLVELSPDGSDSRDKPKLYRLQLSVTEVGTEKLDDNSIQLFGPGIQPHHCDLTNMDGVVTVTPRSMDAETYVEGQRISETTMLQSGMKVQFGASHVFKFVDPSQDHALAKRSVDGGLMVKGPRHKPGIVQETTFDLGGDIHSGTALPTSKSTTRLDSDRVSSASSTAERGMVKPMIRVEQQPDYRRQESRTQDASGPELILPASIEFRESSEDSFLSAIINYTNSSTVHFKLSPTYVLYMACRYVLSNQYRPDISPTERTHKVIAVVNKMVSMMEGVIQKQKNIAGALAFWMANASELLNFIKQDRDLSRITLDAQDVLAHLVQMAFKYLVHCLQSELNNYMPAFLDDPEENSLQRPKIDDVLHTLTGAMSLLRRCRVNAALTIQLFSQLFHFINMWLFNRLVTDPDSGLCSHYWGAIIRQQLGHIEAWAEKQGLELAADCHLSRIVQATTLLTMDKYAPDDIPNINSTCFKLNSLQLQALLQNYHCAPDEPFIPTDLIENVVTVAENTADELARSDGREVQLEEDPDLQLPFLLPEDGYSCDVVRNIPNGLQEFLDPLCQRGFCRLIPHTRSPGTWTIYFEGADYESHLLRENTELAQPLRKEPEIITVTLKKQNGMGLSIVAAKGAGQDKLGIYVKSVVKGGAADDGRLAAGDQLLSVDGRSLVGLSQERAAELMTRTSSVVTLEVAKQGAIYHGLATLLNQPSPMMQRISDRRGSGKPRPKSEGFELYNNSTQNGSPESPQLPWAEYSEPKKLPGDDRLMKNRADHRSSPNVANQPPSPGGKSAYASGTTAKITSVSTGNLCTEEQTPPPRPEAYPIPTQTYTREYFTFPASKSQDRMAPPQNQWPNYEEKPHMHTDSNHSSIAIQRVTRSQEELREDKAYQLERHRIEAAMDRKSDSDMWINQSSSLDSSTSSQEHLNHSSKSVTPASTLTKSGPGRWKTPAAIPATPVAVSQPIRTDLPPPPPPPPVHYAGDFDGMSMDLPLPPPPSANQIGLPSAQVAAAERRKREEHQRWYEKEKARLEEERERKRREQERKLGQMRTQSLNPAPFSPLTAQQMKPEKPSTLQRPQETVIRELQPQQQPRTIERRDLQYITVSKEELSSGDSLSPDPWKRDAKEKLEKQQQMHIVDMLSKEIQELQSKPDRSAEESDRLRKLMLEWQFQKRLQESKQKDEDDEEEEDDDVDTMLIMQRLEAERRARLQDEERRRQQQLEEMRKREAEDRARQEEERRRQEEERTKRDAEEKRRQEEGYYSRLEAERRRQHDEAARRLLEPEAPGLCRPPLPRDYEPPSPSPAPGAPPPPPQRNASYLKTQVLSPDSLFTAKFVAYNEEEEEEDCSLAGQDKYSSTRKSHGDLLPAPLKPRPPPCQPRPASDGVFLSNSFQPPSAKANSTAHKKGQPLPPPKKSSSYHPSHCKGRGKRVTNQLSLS
# UniProt P54753, residues 34-998: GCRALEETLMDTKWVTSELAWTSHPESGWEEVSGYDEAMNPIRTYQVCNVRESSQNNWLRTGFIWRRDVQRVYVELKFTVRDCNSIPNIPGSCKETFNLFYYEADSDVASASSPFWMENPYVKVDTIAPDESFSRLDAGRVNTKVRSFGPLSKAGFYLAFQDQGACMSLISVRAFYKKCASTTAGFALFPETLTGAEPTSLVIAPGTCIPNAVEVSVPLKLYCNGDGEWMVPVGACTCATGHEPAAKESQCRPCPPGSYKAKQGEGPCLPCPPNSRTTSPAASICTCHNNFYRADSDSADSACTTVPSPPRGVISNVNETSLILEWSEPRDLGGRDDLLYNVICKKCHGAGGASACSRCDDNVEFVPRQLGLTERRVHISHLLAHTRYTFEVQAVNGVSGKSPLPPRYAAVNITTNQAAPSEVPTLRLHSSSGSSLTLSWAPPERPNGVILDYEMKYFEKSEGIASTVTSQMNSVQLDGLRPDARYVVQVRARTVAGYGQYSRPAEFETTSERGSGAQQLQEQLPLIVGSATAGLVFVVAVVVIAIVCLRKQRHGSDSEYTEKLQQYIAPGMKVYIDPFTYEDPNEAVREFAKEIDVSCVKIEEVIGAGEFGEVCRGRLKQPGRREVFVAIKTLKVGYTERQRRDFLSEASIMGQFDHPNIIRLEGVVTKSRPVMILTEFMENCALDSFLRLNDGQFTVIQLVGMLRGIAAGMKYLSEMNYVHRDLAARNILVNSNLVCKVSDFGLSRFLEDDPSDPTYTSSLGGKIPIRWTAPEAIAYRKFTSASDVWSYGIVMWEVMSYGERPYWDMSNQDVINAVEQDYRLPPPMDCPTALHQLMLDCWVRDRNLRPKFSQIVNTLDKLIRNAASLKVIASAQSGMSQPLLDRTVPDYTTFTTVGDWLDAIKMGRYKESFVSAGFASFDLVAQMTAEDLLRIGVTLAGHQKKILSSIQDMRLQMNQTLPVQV
# Experiments:
# [1] = biological target: afadin (human (endogenous in Ls174T)) (UniProt P55196); experiment: co-IP; endogenous proteins from Ls174T lysate (50 mM Tris HCl pH 7.5, 150 mM NaCl, 1 mM MgCl2, 1% Nonidet P-40, 1 mM EGTA, 10% glycerol); IgG, anti-afadin or anti-EphB3 antibody on Dynabeads Protein G added to 1 mg of pre-cleared lysate; Western blot
# [2] = biological target: EphB3 (human (endogenous in Ls174T)) (UniProt P54753); experiment: as above
Substance,binding [1],binding [2]
EphB3 (from UniProt P54753 34-998) (receptor),binds,
afadin (from UniProt P55196-1 1-1816),,binds

# Source: paper PMC4204899
